No constants are given. Whether binding was seen depends on the method and setting. In cells and extracts the contact can be indirect. Here binding means that the protein was enriched with, or labelled near, the bait; the list need not be complete. For some assays here: Sequences can lack the tags named with a protein. Blank lines part the entries; values can stand above or below the molecule they belong to.
Columns and labels:
BirA*-Flag JUN WT = BirA*-Flag JUN WT (UniProt P05412); assay: proximity labelling
[1] = molecular target: T1, BirA*-Flag JUN WT, P05412; assay: proximity labelling; settings: remark: other sources report otherwise
T1 chain: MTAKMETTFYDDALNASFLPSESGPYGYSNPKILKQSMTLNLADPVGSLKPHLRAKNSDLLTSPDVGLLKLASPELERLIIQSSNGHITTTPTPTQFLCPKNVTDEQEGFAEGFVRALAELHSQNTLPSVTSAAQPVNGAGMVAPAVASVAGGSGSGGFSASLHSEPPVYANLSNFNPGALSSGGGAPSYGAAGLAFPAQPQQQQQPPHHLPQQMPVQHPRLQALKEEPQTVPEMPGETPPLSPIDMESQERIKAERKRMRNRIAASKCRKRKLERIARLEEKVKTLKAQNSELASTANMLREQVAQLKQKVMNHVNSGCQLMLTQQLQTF

By UniProt entry, the sequences of proteins in these tests, tags left out.
UniProt P51532: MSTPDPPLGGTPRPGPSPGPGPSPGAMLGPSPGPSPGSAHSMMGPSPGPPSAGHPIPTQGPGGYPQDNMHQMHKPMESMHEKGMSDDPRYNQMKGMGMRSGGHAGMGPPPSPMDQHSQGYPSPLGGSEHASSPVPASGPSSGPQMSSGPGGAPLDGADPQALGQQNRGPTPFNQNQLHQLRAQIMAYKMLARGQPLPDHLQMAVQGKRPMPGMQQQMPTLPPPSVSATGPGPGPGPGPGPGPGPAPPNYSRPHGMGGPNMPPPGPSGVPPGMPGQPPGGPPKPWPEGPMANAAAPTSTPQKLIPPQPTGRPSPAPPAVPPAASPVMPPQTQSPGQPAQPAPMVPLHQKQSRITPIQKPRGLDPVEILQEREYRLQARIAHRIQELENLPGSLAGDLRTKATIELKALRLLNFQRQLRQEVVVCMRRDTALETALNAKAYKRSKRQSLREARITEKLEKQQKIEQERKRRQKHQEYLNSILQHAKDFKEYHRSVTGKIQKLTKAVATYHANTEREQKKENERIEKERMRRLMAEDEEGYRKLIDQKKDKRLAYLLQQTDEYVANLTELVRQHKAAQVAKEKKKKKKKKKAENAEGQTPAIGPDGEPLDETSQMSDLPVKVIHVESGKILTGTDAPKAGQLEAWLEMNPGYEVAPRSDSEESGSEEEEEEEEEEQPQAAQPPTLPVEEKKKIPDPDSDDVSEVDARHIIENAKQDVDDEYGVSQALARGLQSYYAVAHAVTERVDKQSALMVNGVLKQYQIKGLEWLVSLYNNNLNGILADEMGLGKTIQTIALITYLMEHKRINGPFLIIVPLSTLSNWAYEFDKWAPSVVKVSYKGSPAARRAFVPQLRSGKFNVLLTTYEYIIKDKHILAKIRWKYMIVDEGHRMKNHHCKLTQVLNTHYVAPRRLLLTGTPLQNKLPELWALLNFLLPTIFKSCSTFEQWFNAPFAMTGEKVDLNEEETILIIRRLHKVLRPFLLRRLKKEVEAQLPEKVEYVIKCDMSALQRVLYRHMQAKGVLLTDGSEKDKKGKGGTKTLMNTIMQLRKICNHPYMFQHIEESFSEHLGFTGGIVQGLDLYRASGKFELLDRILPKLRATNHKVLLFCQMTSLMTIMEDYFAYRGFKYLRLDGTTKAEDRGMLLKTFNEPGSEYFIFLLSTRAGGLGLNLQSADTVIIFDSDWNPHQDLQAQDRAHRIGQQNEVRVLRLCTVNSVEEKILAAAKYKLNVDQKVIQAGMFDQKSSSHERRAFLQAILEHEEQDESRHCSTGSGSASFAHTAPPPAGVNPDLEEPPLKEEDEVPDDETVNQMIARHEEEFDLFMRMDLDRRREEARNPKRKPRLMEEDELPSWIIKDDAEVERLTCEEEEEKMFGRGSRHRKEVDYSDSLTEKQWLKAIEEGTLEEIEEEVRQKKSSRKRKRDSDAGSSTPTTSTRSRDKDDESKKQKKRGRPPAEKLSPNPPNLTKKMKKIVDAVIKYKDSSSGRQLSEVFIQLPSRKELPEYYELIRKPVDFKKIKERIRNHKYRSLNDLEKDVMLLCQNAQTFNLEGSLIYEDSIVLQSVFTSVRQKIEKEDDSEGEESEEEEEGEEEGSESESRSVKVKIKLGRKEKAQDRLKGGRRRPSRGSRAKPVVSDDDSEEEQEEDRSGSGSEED
UniProt P46937: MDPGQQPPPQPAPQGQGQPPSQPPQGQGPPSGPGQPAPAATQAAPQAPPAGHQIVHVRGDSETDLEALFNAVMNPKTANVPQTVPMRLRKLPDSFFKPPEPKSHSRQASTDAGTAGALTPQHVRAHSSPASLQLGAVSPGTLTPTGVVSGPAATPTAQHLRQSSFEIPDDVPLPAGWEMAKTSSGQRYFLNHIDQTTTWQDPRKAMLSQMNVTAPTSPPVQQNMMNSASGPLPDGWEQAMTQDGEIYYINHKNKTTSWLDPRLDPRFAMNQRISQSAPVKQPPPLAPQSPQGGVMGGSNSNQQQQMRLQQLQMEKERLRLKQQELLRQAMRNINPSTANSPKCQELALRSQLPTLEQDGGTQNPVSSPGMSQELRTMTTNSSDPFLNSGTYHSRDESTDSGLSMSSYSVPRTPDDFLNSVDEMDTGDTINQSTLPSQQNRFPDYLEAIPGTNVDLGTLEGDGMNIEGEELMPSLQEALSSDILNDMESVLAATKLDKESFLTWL
UniProt O75376: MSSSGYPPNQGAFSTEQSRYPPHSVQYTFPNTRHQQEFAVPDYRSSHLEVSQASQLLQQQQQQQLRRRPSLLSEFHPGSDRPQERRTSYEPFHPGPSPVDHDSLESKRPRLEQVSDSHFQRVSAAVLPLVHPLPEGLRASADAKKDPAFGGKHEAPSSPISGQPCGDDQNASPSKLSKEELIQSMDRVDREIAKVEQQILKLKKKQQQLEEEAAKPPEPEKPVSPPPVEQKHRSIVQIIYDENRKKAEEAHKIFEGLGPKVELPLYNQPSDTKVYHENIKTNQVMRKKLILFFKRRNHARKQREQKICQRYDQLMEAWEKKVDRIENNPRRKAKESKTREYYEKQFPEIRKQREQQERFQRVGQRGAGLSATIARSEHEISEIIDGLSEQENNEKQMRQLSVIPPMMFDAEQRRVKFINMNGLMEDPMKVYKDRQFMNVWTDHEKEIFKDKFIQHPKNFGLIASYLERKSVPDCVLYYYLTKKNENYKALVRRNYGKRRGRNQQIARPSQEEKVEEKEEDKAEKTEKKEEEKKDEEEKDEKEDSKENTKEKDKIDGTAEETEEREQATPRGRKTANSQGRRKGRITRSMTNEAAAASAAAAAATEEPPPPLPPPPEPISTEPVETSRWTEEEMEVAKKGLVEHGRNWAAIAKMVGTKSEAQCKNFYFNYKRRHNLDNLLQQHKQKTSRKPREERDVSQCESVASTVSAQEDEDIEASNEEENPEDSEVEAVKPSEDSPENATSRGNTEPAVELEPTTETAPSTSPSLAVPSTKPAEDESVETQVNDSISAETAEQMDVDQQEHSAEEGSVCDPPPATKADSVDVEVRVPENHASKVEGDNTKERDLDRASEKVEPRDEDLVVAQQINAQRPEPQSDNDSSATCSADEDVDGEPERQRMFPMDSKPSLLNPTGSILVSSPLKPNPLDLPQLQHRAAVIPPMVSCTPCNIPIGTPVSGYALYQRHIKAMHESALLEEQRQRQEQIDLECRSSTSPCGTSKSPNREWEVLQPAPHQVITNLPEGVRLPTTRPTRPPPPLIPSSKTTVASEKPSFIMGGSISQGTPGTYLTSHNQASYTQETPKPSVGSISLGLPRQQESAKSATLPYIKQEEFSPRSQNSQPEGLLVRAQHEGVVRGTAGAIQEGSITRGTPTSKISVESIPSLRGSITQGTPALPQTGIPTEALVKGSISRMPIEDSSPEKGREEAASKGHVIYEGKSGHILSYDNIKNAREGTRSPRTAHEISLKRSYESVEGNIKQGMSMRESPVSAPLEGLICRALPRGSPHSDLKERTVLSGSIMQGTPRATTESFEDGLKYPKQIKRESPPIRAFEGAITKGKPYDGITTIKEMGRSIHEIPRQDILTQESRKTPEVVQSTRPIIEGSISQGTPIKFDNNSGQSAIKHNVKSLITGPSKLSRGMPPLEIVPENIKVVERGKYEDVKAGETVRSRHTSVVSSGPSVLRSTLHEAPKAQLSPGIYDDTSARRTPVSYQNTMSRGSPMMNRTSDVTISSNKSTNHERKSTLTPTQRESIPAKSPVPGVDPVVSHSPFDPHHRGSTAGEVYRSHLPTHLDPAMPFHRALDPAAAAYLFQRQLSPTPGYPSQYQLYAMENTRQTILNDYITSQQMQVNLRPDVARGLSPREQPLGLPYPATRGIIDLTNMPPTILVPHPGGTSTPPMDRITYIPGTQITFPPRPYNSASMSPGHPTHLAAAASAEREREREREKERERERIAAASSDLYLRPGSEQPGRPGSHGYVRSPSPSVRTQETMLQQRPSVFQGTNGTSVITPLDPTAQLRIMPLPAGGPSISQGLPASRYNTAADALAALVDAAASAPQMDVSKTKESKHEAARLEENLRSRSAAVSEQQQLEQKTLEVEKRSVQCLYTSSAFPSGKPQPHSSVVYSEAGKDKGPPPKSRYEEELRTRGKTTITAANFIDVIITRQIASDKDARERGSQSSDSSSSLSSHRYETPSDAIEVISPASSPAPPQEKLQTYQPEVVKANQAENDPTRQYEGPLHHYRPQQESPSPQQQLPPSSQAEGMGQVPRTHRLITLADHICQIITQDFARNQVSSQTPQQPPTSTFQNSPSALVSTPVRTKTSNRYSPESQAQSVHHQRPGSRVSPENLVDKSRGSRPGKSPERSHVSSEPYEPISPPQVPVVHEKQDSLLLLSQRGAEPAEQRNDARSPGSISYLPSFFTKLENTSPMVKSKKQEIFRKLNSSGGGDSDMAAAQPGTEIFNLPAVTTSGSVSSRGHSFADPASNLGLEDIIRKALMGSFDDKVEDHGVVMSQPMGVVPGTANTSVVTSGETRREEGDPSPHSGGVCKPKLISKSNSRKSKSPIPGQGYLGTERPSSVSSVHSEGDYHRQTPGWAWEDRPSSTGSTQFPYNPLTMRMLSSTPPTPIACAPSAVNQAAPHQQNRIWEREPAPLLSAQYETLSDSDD
UniProt P51531: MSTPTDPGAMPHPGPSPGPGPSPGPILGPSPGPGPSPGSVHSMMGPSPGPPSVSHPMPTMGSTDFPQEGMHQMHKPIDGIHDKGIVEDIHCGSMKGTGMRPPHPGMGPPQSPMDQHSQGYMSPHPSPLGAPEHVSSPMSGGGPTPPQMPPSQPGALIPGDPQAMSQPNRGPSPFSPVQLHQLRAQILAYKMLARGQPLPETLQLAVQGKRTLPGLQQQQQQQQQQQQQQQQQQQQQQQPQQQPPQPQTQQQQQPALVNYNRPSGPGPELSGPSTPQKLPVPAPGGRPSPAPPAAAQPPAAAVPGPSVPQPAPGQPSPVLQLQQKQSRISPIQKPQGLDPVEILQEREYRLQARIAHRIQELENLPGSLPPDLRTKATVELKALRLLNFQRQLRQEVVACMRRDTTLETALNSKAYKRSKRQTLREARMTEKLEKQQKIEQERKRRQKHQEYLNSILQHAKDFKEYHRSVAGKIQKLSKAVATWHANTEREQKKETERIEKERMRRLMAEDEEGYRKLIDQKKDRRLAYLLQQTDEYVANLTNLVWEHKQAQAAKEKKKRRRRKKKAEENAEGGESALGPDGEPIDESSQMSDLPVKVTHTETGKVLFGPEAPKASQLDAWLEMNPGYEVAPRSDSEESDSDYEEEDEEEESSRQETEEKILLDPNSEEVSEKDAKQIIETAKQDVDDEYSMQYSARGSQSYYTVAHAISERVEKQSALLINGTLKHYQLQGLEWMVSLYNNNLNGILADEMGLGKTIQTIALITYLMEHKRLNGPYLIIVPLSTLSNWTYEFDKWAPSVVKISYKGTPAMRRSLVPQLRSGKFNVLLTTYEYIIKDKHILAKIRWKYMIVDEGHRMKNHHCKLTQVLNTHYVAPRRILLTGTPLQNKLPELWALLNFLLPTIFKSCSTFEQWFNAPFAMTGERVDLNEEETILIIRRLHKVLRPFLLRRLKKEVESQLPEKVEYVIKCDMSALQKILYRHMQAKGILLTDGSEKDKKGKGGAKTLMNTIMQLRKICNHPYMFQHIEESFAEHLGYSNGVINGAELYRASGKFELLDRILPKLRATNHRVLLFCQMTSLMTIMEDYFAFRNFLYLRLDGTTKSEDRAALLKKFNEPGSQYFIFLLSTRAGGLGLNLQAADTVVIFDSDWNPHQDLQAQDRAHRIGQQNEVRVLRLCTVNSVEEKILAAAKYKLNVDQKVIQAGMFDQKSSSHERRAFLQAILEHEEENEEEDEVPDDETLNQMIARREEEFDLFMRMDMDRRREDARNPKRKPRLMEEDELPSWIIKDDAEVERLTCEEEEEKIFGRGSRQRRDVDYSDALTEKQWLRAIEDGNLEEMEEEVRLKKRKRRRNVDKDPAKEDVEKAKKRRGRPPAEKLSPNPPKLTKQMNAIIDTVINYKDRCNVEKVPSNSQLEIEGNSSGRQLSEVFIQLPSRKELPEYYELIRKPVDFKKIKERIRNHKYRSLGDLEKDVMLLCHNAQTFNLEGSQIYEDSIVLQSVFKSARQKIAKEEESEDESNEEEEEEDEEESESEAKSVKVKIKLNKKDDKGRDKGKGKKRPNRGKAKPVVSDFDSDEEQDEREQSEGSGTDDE

Molecule: SMARCA4 (from UniProt P51532 1-1647)
- binding (BirA*-Flag JUN WT): binds

Molecule: Yes-associated protein (YAP) (from UniProt P46937 1-504)
- binding (BirA*-Flag JUN WT): binds

B1: FOSB, P53539 1-338 (protein)
chain: MFQAFPGDYDSGSRCSSSPSAESQYLSSVDSFGSPPTAAASQECAGLGEMPGSFVPTVTAITTSQDLQWLVQPTLISSMAQSQGQPLASQPPVVDPYDMPGTSYSTPGMSGYSSGGASGSGGPSTSGTTSGPGPARPARARPRRPREETLTPEEEEKRRVRRERNKLAAAKCRNRRRELTDRLQAETDQLEEEKAELESEIAELQKEKERLEFVLVAHKPGCKIPYEEGPGPGPLAEVRDLPGSAPAKEDGFSWLLPPPPPPPLPFQTSQDAPPNLTASLFTHSEVQVLGDPFPVVNPSYTSSFVLTCPEVSAFAGAQRTSGSDQPSDPLNSPSLLAL
- binding [1]: binds

Now from value to molecule:

- binding (BirA*-Flag JUN WT): binds
Molecule: NCOR1 (from UniProt O75376 1-2440)

- binding (BirA*-Flag JUN WT): binds
Molecule: SMARCA2 (from UniProt P51531 1-1590)

Reference: doi:10.1101/2023.08.20.554005
